{"source": "PubChem BioAssay AID504804 | Drosophila RNAi Screening Center – 2011", "aim": "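Knock-downs shielding fly cells from apoptosis caused by DNA damage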 (primary screen)", "cell system": "Drosophila Kc cells", "knock-down reagent": "long dsRNA against Drosophila genes, 0.5 µg dsRNA per well", "time to read-out": "96 h (48 h knock-down, then 48 h drug)", "challenge": "doxorubicin 5 µg/ml for 48 h, added 48 h after dsRNA", "measured": "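Luminescent ATP counts per replicate, not normalised, reflecting viable cells after 48 h dsRNA knock-down followed by 48 h of 5 µg/ml doxorubicin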", "scale": "raw ATP luminescence: higher = more viable cells, protection from doxorubicin", "active means": "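z-score of 2 or more over plate mean in both duplicates, retained only when retests and separate dsRNAs confirm the protection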", "note": "The screen tested about 19,000 reagents; shown is an unselected part of those with a known target gene and a result. In the full data, 47 (0.25%) are marked active. 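Signals are raw, not normalised; exact z-scores behind calls not deposited; actives needed confirmation, so some wells reaching 2 SD are inactive.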 Reagents against one gene are numbered here. Names joined by + are all predicted targets of the reagent."}
{"Gene":"Rai1 (Rat1 Interacting Protein 1)","dsRNA no.":1,"raw ATP luminescence, replicate 1":3.38e5,"raw ATP luminescence, replicate 2":3.09e5,"call":"inactive"}
{"Gene":"CG17574","dsRNA no.":1,"raw ATP luminescence, replicate 1":2.52e5,"raw ATP luminescence, replicate 2":2.49e5,"call":"inactive"}
{"Gene":"Efhc1.1 (EF-hand domain containing 1.1)","dsRNA no.":1,"raw ATP luminescence, replicate 1":3.55e5,"raw ATP luminescence, replicate 2":3.33e5,"call":"inactive"}
{"Gene":"CG4619","dsRNA no.":1,"raw ATP luminescence, replicate 1":88783,"raw ATP luminescence, replicate 2":59600,"call":"inactive"}
{"Gene":"Mgat4b","dsRNA no.":1,"raw ATP luminescence, replicate 1":90620,"raw ATP luminescence, replicate 2":65740,"call":"inactive"}
{"Gene":"CG42304 + Snup","dsRNA no.":1,"raw ATP luminescence, replicate 1":42240,"raw ATP luminescence, replicate 2":65690,"call":"inactive"}
{"Gene":"CG14710","dsRNA no.":1,"raw ATP luminescence, replicate 1":59283,"raw ATP luminescence, replicate 2":28763,"call":"inactive"}
{"Gene":"Qtzl (Quetzalcoatl)","dsRNA no.":1,"raw ATP luminescence, replicate 1":3.00e5,"raw ATP luminescence, replicate 2":3.18e5,"call":"inactive"}
{"Gene":"Cdk7 (Cyclin-dependent kinase 7)","dsRNA no.":1,"raw ATP luminescence, replicate 1":41160,"raw ATP luminescence, replicate 2":54290,"call":"inactive"}
{"Gene":"Twdlalpha (Tweedlealpha)","dsRNA no.":1,"raw ATP luminescence, replicate 1":3.15e5,"raw ATP luminescence, replicate 2":3.14e5,"call":"inactive"}
{"Gene":"CG42375 + CG9288","dsRNA no.":1,"raw ATP luminescence, replicate 1":60893,"raw ATP luminescence, replicate 2":39197,"call":"inactive"}
{"Gene":"CG33109","dsRNA no.":1,"raw ATP luminescence, replicate 1":88620,"raw ATP luminescence, replicate 2":83200,"call":"inactive"}
{"Gene":"Phyhd1 (Phytanoyl-CoA dioxygenase domain containing 1)","dsRNA no.":1,"raw ATP luminescence, replicate 1":53133,"raw ATP luminescence, replicate 2":59043,"call":"inactive"}
{"Gene":"CG42537","dsRNA no.":1,"raw ATP luminescence, replicate 1":48010,"raw ATP luminescence, replicate 2":54120,"call":"inactive"}
{"Gene":"CG5116","dsRNA no.":1,"raw ATP luminescence, replicate 1":2.19e5,"raw ATP luminescence, replicate 2":2.22e5,"call":"inactive"}
{"Gene":"Su(var)3-7 (Suppressor of variegation 3-7)","dsRNA no.":1,"raw ATP luminescence, replicate 1":74780,"raw ATP luminescence, replicate 2":63650,"call":"inactive"}
{"Gene":"Gar1 (Gar1 ribonucleoprotein)","dsRNA no.":1,"raw ATP luminescence, replicate 1":49890,"raw ATP luminescence, replicate 2":34530,"call":"inactive"}
{"Gene":"pdm3 (pou domain motif 3)","dsRNA no.":1,"raw ATP luminescence, replicate 1":40150,"raw ATP luminescence, replicate 2":75320,"call":"inactive"}
{"Gene":"pdm3 (pou domain motif 3)","dsRNA no.":2,"raw ATP luminescence, replicate 1":38350,"raw ATP luminescence, replicate 2":63877,"call":"inactive"}
{"Gene":"CG15347","dsRNA no.":1,"raw ATP luminescence, replicate 1":45710,"raw ATP luminescence, replicate 2":51950,"call":"inactive"}
{"Gene":"CG5346","dsRNA no.":1,"raw ATP luminescence, replicate 1":19630,"raw ATP luminescence, replicate 2":18130,"call":"inactive"}
{"Gene":"Samuel","dsRNA no.":1,"raw ATP luminescence, replicate 1":33457,"raw ATP luminescence, replicate 2":56197,"call":"inactive"}
{"Gene":"Samuel","dsRNA no.":2,"raw ATP luminescence, replicate 1":22893,"raw ATP luminescence, replicate 2":22397,"call":"inactive"}
{"Gene":"Samuel","dsRNA no.":3,"raw ATP luminescence, replicate 1":35663,"raw ATP luminescence, replicate 2":74257,"call":"inactive"}

An excerpt from above, reduced to “raw ATP luminescence, replicate 2”:
CG42304 + Snup = 65690
CG14710 = 28763
Qtzl (Quetzalcoatl) = 3.18e5
Cdk7 (Cyclin-dependent kinase 7) = 54290
Twdlalpha (Tweedlealpha) = 3.14e5

The list goes on.
{"Gene":"CrebA (Cyclic-AMP response element binding protein A)","dsRNA no.":1,"raw ATP luminescence, replicate 1":31040,"raw ATP luminescence, replicate 2":29633,"call":"inactive"}
{"Gene":"CG34273","dsRNA no.":1,"raw ATP luminescence, replicate 1":1.82e5,"raw ATP luminescence, replicate 2":1.66e5,"call":"inactive"}
{"Gene":"CG44838","dsRNA no.":1,"raw ATP luminescence, replicate 1":15157,"raw ATP luminescence, replicate 2":14393,"call":"inactive"}
{"Gene":"CG44838","dsRNA no.":2,"raw ATP luminescence, replicate 1":40343,"raw ATP luminescence, replicate 2":37560,"call":"inactive"}
{"Gene":"blow (blown fuse)","dsRNA no.":1,"raw ATP luminescence, replicate 1":84247,"raw ATP luminescence, replicate 2":58320,"call":"inactive"}
{"Gene":"CG13707","dsRNA no.":1,"raw ATP luminescence, replicate 1":89313,"raw ATP luminescence, replicate 2":86470,"call":"inactive"}
{"Gene":"Dcr-1 (Dicer-1)","dsRNA no.":1,"raw ATP luminescence, replicate 1":56947,"raw ATP luminescence, replicate 2":55620,"call":"inactive"}
{"Gene":"RpS5b (Ribosomal protein S5b)","dsRNA no.":1,"raw ATP luminescence, replicate 1":60480,"raw ATP luminescence, replicate 2":62180,"call":"inactive"}
{"Gene":"CG1998","dsRNA no.":1,"raw ATP luminescence, replicate 1":3.81e5,"raw ATP luminescence, replicate 2":4.26e5,"call":"inactive"}
{"Gene":"CG15629","dsRNA no.":1,"raw ATP luminescence, replicate 1":38973,"raw ATP luminescence, replicate 2":36797,"call":"inactive"}
{"Gene":"GILT1 (Gamma-interferon-inducible lysosomal thiol reductase 1)","dsRNA no.":1,"raw ATP luminescence, replicate 1":43950,"raw ATP luminescence, replicate 2":22780,"call":"inactive"}
{"Gene":"CCT5 (Chaperonin containing TCP1 subunit 5)","dsRNA no.":1,"raw ATP luminescence, replicate 1":73427,"raw ATP luminescence, replicate 2":55317,"call":"inactive"}
